Measured values as given in the supplement of paper PMC10849652.
The list shows a part of the results.

Protein sequences, listed by entry. Tags and fused reporters are not part of them. Lines headed by an entry give the natural chain unless they say otherwise; changes in a name come on top.
UniProt Q96C36: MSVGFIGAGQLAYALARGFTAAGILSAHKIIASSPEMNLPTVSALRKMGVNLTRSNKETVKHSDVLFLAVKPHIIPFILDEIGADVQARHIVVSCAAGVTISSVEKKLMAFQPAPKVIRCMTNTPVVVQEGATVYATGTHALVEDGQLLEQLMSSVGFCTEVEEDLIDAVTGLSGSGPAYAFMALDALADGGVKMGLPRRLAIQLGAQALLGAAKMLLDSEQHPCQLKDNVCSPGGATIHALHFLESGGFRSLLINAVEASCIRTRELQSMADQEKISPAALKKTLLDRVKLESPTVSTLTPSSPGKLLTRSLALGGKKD
UniProt Q16401: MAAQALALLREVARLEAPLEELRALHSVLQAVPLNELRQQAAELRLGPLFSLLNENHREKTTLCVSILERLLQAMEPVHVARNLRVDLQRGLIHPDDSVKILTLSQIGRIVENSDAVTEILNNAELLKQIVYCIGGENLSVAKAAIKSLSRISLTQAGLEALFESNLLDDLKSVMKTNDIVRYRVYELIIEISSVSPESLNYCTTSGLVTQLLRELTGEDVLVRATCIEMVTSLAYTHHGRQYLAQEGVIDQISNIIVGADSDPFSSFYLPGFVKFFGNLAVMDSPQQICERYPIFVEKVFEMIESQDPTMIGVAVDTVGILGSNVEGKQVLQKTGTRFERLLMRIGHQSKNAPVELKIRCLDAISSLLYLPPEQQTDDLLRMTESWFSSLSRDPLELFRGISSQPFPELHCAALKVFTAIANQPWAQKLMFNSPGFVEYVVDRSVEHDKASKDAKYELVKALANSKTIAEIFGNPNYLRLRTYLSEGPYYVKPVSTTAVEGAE
UniProt P28070, whole entry, looked up: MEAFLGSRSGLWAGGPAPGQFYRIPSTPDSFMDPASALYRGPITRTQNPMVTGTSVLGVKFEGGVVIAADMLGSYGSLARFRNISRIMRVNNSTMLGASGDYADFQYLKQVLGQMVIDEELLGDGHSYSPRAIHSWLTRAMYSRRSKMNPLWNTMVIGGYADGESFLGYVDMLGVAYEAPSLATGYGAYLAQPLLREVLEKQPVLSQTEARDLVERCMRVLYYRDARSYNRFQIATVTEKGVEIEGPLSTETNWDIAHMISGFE
UniProt O00487, whole entry, looked up: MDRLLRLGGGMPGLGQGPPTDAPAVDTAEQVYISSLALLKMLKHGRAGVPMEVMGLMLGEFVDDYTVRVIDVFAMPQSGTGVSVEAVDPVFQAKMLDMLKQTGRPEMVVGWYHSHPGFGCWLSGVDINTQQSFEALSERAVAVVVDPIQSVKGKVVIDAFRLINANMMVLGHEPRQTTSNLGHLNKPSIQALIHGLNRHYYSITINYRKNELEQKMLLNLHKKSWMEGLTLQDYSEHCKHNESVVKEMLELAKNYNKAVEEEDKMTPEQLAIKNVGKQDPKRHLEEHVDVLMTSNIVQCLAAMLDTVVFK
UniProt Q9BRX8: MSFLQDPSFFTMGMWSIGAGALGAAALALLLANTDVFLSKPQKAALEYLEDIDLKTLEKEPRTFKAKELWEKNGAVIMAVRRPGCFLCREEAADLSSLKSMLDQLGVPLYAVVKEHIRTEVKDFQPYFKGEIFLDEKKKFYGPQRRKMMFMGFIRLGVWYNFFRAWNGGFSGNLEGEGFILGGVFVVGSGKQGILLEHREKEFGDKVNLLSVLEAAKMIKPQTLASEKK
UniProt Q9BVG9: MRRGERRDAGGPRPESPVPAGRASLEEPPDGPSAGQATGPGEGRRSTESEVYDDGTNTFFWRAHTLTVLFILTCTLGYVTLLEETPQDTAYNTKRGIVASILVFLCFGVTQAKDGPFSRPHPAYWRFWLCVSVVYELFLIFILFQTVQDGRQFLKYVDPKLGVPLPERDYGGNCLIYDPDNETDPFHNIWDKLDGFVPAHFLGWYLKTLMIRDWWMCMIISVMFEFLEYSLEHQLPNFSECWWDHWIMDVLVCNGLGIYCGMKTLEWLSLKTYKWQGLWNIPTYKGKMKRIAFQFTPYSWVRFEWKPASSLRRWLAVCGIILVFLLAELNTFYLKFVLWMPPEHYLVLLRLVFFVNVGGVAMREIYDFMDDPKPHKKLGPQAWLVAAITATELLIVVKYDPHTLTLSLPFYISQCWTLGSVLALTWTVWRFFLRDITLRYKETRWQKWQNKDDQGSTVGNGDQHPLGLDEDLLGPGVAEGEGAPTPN
UniProt Q9H974: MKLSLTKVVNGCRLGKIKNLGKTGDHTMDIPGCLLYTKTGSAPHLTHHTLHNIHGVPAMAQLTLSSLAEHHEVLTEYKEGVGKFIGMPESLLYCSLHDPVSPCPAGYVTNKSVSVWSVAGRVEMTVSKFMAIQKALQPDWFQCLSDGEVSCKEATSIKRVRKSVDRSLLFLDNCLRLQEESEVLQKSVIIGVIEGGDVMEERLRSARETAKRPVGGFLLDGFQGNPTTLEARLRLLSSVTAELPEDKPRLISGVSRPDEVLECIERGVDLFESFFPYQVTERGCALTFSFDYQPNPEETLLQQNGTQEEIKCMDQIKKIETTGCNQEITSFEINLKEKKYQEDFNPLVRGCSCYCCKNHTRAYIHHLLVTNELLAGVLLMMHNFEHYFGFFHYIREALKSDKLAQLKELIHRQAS
UniProt Q9Y6I8: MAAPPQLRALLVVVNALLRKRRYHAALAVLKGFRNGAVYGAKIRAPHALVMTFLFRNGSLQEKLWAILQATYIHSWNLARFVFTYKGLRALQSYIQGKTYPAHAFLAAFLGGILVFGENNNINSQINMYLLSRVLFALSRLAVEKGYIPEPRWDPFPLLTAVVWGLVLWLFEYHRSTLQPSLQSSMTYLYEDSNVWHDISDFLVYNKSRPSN
UniProt P25787: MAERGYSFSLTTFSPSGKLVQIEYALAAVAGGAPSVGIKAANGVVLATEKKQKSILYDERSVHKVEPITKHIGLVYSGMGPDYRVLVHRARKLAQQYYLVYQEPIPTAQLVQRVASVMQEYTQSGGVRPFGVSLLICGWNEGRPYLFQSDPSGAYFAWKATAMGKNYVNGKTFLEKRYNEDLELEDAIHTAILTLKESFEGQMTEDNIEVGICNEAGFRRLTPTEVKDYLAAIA

Experiments:
Test in all cases: log2 fold change, soluble protein after heating vs DMSO (PISA); higher = thermal stabilisation; K562 cells, 10 uM, 30 min; active = over 0.2 and 3.5 SD of the protein, either way, in both replicates (recomputed)
[1] = compound: C1=CC=C(C=C1)[C@H](COC2=CC3=C(C=C2)NC(=O)N3)NC(=O)C4=CC=CN(C4=O)CC5=CC(=C(C=C5)F)F
Outline: (§1)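 K562 cells (2×10^6 cells/mL) were treated with 10 μM compound for 30 min, and aliquots were heated for 3 min over 48°C-58°C. Pooled aliquots were extracted in PBS with 0.5% NP-40 at 4°C, and the supernatant after 21,000xg for 90 min was measured by TMTpro 16plex LC-MS/MS with channel sums equalised. Reported thermal stability, relative to control samples and from duplicates, is a log2 fold change.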

[2] = compound: CC1=C(SC2=C1C(=N[C@H](C3=NN=C(N32)C)CC(=O)N)C4=CC=C(C=C4)Cl)C
Outline: as §1

[3] = compound: CC1=C2C(=CC=C1)N=C(N(C2=O)C3=CC=CC=C3C)CN4C=NC5=C(N=CN=C54)N
Outline: as §1

[4] = compound: Cc1sc2c(c1C)C(c1ccc(Cl)cc1)=N[C@@H](CC(=O)OC(C)(C)C)c1nnc(C)n1-2
Outline: as §1

[5] = compound: c1ccc([C@@H]2C[C@H]2NC2CCNCC2)cc1
Outline: as §1

Measured: log2 fold change

PYCR2 (UniProt Q96C36)
inactive: [1] 0.043 | [2] 0.044 | [3] -0.027 | [4] 0.027 | [5] 0.003

PSMD5 (UniProt Q16401)
inactive: [1] 0 | [2] 0.028 | [3] 0.006 | [4] -0.006 | [5] -0.001

PSMB4 (UniProt P28070)
inactive: [1] 0.024 | [2] -0.037 | [3] -0.038 | [4] -0.009 | [5] 0.03

PSMD14 (UniProt O00487)
inactive: [1] -0.022 | [2] -0.062 | [3] -0.044 | [4] -0.021 | [5] 0.012

PRXL2A (UniProt Q9BRX8)
inactive: [1] 0.035 | [2] 0.04 | [3] 0.102 | [4] 0.076 | [5] -0.044

PTDSS2 (UniProt Q9BVG9)
inactive: [1] -0.042 | [2] 0.055 | [3] 0.067 | [4] -0.078 | [5] -0.019

QTRT2 isoform 4 (UniProt Q9H974)
inactive: [1] 0.022 | [2] 0.007 | [3] 0.059 | [4] -0.01 | [5] 0.004

PXMP4 (UniProt Q9Y6I8)
inactive: [1] 0.013 | [2] -0.091 | [3] 0.09 | [4] -0.087 | [5] 0.074

PSMA2 (UniProt P25787)
inactive: [1] 0.045 | [2] -0.005 | [3] -0.044 | [4] -0.006 | [5] 0.02
